Values from PubChem BioAssay AID493246 (Drosophila RNAi Screening Center, 2011).
The deposit covers about 21,000 reagents; below is an unselected part of those that have a named target and a result. In the full data, 429 (2%) are marked active. 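Values are raw and not normalised between plates; calls rest on per-plate z-scores that were not deposited.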 The numbers tell different reagents against one gene apart. Not given: the amount of reagent, the time to read-out.

Assay: 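Identify essential fly genes by loss of cell viability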 (primary screen)
System: Drosophila Kc and S2R+ cells
Knock-down reagent: long dsRNA against Drosophila genes
Read-out: 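Cell number per well after knock-down, printed as raw plate values; calls were based on per-plate z-scores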
Reading the numbers: Kc cell number and S2R+ cell number: higher = more cells remaining
Hit rule: 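Active when the per-plate z-score of cell number is 3 or more in the direction of fewer cells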

What did the screen give for Prosalpha3 (GeneID 37378)?
Kc cell number, rep 1: 1.35e6; Kc cell number, rep 2: 1.45e6; S2R+ cell number, rep 1: 7.88e5; S2R+ cell number, rep 2: 4.49e5; activity call: inactive

With CG32189 (GeneID 317902), what was measured?
Kc cell number, rep 1: 1.56e6; Kc cell number, rep 2: 1.68e6; S2R+ cell number, rep 1: 1.14e6; S2R+ cell number, rep 2: 1.34e6; activity call: inactive

What did the screen give for CG42525 (GeneID 8674097)?
Kc cell number, rep 1: 1.39e6; Kc cell number, rep 2: 1.32e6; S2R+ cell number, rep 1: 9.97e5; S2R+ cell number, rep 2: 1.09e6; activity call: inactive

What is on record for CG10339 (GeneID 37854)?
Kc cell number, rep 1: 1.51e6; Kc cell number, rep 2: 1.55e6; S2R+ cell number, rep 1: 1.21e6; S2R+ cell number, rep 2: 1.30e6; activity call: inactive

For Atg3 (GeneID 40044), what does the deposit list?
Kc cell number, rep 1: 1.57e6; Kc cell number, rep 2: 1.71e6; S2R+ cell number, rep 1: 1.13e6; S2R+ cell number, rep 2: 1.24e6; activity call: inactive

For sha (GeneID 36213), what does the deposit list?
Kc cell number, rep 1: 1.51e6; Kc cell number, rep 2: 1.52e6; S2R+ cell number, rep 1: 1.13e6; S2R+ cell number, rep 2: 1.26e6; activity call: inactive

What is on record for FAM21 (GeneID 37331)?
Kc cell number, rep 1: 1.39e6; Kc cell number, rep 2: 1.41e6; S2R+ cell number, rep 1: 1.14e6; S2R+ cell number, rep 2: 1.20e6; activity call: inactive

What did the screen give for CG1847 (GeneID 32144)?
Kc cell number, rep 1: 5.72e5; S2R+ cell number, rep 1: 8.47e5; activity call: inactive

For Rcd6 (GeneID 37332), what was measured?
Kc cell number, rep 1: 1.38e6; Kc cell number, rep 2: 1.43e6; S2R+ cell number, rep 1: 1.10e6; S2R+ cell number, rep 2: 1.19e6; activity call: inactive

For CG4259 (GeneID 33385), how do the results read?
Kc cell number, rep 1: 1.51e6; Kc cell number, rep 2: 1.54e6; S2R+ cell number, rep 1: 1.03e6; S2R+ cell number, rep 2: 1.18e6; activity call: inactive

With Rh7 (GeneID 39389), how do the results read?
Kc cell number, rep 1: 1.42e6; Kc cell number, rep 2: 1.48e6; S2R+ cell number, rep 1: 9.71e5; S2R+ cell number, rep 2: 9.84e5; activity call: inactive

For CG4372 (GeneID 37490), what was measured?
Kc cell number, rep 1: 1.50e6; Kc cell number, rep 2: 1.62e6; S2R+ cell number, rep 1: 1.28e6; S2R+ cell number, rep 2: 3.48e5; activity call: inactive

What did the screen give for nwk (GeneID 39052)?
Kc cell number, rep 1: 1.71e6; Kc cell number, rep 2: 1.60e6; S2R+ cell number, rep 1: 1.22e6; S2R+ cell number, rep 2: 1.16e6; activity call: inactive

With Rab19 (GeneID 38930), how do the results read?
Kc cell number, rep 1: 1.61e6; Kc cell number, rep 2: 1.51e6; S2R+ cell number, rep 1: 1.22e6; S2R+ cell number, rep 2: 1.33e6; activity call: inactive

Which result is listed for Vha68-2 (GeneID 45012)?
Kc cell number, rep 1: 1.53e6; Kc cell number, rep 2: 1.54e6; S2R+ cell number, rep 1: 1.25e6; S2R+ cell number, rep 2: 1.40e6; activity call: inactive

How did the screen score CG8870 (GeneID 41645)?
Kc cell number, rep 1: 1.38e6; Kc cell number, rep 2: 1.38e6; S2R+ cell number, rep 1: 1.11e6; S2R+ cell number, rep 2: 1.27e6; activity call: inactive

With CG15539 (GeneID 43627), what does the deposit list?
Kc cell number, rep 1: 1.53e6; Kc cell number, rep 2: 1.54e6; S2R+ cell number, rep 1: 1.01e6; S2R+ cell number, rep 2: 1.08e6; activity call: inactive

What is on record for Pal1 (GeneID 36033)?
Kc cell number, rep 1: 1.45e6; Kc cell number, rep 2: 1.50e6; S2R+ cell number, rep 1: 1.09e6; S2R+ cell number, rep 2: 1.13e6; activity call: inactive

With CG16853 (GeneID 34771), what was measured?
Kc cell number, rep 1: 1.50e6; Kc cell number, rep 2: 1.57e6; S2R+ cell number, rep 1: 1.24e6; S2R+ cell number, rep 2: 1.36e6; activity call: inactive

Which result is listed for Fak (GeneID 37233)?
Kc cell number, rep 1: 1.47e6; Kc cell number, rep 2: 1.53e6; S2R+ cell number, rep 1: 1.18e6; S2R+ cell number, rep 2: 1.24e6; activity call: inactive

How did the screen score Nmdar2 (GeneID 31107) #1?
Kc cell number, rep 1: 1.51e6; Kc cell number, rep 2: 1.56e6; S2R+ cell number, rep 1: 1.03e6; S2R+ cell number, rep 2: 1.13e6; activity call: inactive

How did the screen score Nmdar2 (GeneID 31107) #2?
Kc cell number, rep 1: 1.51e6; Kc cell number, rep 2: 1.45e6; S2R+ cell number, rep 1: 1.01e6; S2R+ cell number, rep 2: 1.10e6; activity call: inactive

With Nmdar2 (GeneID 31107) #3, how do the results read?
Kc cell number, rep 1: 1.47e6; Kc cell number, rep 2: 1.50e6; S2R+ cell number, rep 1: 1.00e6; S2R+ cell number, rep 2: 1.12e6; activity call: inactive
